At least one compound was matched to its structure with a doubt left. Where a SMILES comes first, the peptide text is derived from it. Bridges are numbered along the chain shown (N, C = ends). Triazole bridges read from a SMILES are 1,4-linked. [ ]: non-standard residue; d: D form. Lys(N3) = [N-]=[N+]=NCCCC[C@H](N)C(=O)O; Pra = C#CC[C@H](N)C(=O)O
Molecular target: CD8αβ (Homo sapiens, UniProt P01732)
Experiment: ELISA binding to CD8αβ
Conditions: stated similar to ligand tfpkk, read-out: EC50, binding affinity to CD8αβ

Sequences of proteins named here, by UniProt entry; tags and fusion partners are left off. Residues count along the entry.
UniProt P01732, 22-182 limits assumed: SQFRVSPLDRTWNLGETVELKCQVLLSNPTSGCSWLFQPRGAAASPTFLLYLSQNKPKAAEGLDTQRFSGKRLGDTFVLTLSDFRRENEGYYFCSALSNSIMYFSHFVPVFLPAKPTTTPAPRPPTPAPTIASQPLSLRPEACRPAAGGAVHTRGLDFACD

## C[C@H](O)[C@H]1NC(=O)[C@@H](Cc2ccc(O)cc2)NC(=O)[C@@H](Cc2c[nH]cn2)NC(=O)[C@@H](CCCCN)NC(=O)[C@@H](N)Cc2cn(nn2)CCCC[C@@H](C(N)=O)NC(=O)[C@@H](CC(N)=O)NC1=O [khytn] (H-[Pra][dK][dH][dY][dT][dN][Lys(N3)]-NH2; triazole 1-7; N-terminus assumed)
  EC50: 6 µM
